Data published in US8716296B2 (Ingenium Pharmaceuticals GmbH, priority 2007, dated 2014).
For at least one compound, name, drawing or mass did not settle the structure.

System: LPS induced THP-1 macrophages
Assay: In vitro THP-1 assay, model of cytokine inhibition
Assay type: cell-based, human
Conditions: differentiated THP-1 cells, 60 min pre-incubation, LPS 4-48 h, ELISA, versus vehicle (DMSO)
Experimental: The human THP-1 cell line can be utilized as an in vitro model of cytokine expression as mediated by Lipopolysaccharide (LPS) or Tumor Necrosis Factorα [TNFα].
Monocytic THP-1 cells (ATCC; TIB-202) can be differentiated into macrophage-like cells expressing pro-inflammatory cytokines like TNFα, IL6 and IL1β upon induction with LPS or by TNFα (autocrine induction) itself.
THP-1 cells are grown in modified RPMI-1640 medium (ATCC, Cat. No. 30-2001) supplemented with 10% FCS and 1% Pen/Strep. For cytokine inhibition assays, cells are seeded at a density of 5×10^5 cells/ml into 6-well plates in standard growth medium supplemented with 100 ng/ml PMA (Sigma, P1585) to induce differentiation into macrophage-like cells. After 24 hours, the medium is replaced with standard growth medium (without PMA) and the cells are incubated for another 48 hours to complete differentiation.
After 72 h of differentiation, the medium is replaced with serum free growth medium, and CDK-inhibiting compounds as well as reference compounds such as positive and negative controls, each dissolved in DMSO are added at concentrations ranging from 0.5 to 5 μM (final concentration of DMSO in the well is 0.1%). […]
Concentrations of TNFα, IL6 and IL1β within the cell culture supernatants are measured by using commercial ELISA Kits (eBioscience) according to the manufacturers instructions. […]

## COc1ccccc1-c1cc(NC(=O)C2CCCN(C(C)=O)C2)ncn1 (centres unmarked) [Compound 20A, 1-acetyl-piperidine-3-carboxylic acid [6-(2-methoxy-phenyl)-pyrimidin-4-yl]-amide]
  IL6 protein concentration in the cell supernatant: significant inhibitory effect
  TNFα protein concentration in the cell supernatant: significant inhibitory effect
